Laboratory results: patent publication US12667546B2, “Methods for manipulating cell state transitions in cancer” (AGENCY FOR SCIENCE, TECHNOLOGY AND RESEARCH, priority 2018, dated 2026)
Where a name gives a salt, the structure may show the parent alone. The name of at least one read-out is uncertain.

How the values were obtained:
[1] = tested on: SERPINE1prom-Luc reporter in NAMEC8 cells; assay: Dual-Glo luciferase assay of SERPINE1prom-Luc reporter (FF/Ren); type: cell-based, human; conditions: primary screen, NAMEC8-SERPINE1prom-Luc cells grown 3 days with compound, relative to DMSO
Excerpt: pGreenFire1-mCMV was cut using ClaI and SpeI and gel purified. Promoter sequences of genes Zeb1, Serpine1, CDH1, CD24, CD44, CD166 were amplified from human genomic DNA with pre-designed primers containing ClaI and SpeI restriction cut sites using AccuPrime Taq DNA Polymerase (Thermo Fisher Scientific). PCR products were then digested with restriction enzymes and gel-purified. Vector was ligated with PCR insert using Quick Ligase (Fermentas) and transformed into Stb12 competent cells. Colonies were picked and inoculated into TB media with ampicillin. Plasmids were then isolated using a plasmid miniprep kit (Qiagen) and sent for sequencing (1 stBASE Laboratories). After verifying the plasmid sequence, transfection into HEK293 cells was carried out to generate lentivirus. Transfection was carried out using FuGENE 6 (Promega). Viral supernatant was harvested at 24 h and 48 h. NAMEC8 cells were then infected twice with virus using polybrene ([…]) and checked for good transduction efficiency using Dual-Glo Luciferase System (Promega).
Stock plates of compound libraries were kindly prepared by GIS CHiP facility at 1 mM concentration in DMSO. NAMEC8-SERPINE1prom-Luc cells were seeded into 384 well plates at a density of 700 cells/well in a total volume of 50 μl, using an automated dispensing system (BioTek). 0.5 μl of compounds were then added to the wells the following day using a robotic pin transfer with a Bravo workstation (Agilent Technologies). Cells were then grown for 3 days and promoter-luciferase activity was measured using the Dual-Glo Luciferase System (Promega).
Assay was carried out according to manufacturer's instructions. To measure luciferase activity in 384 well plates, media was first removed from the plate. Firefly luciferase activity was determined by adding 30 μl Dual-Glo Luciferase substrate (Promega) to the wells and incubated for 10 min before measuring luminescence using a TECAN M1000 Pro plate reader. 15 μl Dual-Glo Stop & Glo substrate was then added to the wells, incubated for 10 min and measuring luminescence on the plate reader to determine Renilla luciferase activity. Promoter luciferase activity is then calculated by taking Firefly luciferase over Renilla luciferase.

[2] = tested on: NAMEC8-SERPINE1prom-Luc cells; assay: Renilla-luciferase (constitutive CMV promoter) readout for cell numbers; type: cell-based, human; conditions: primary screen, Renilla as readout for cell numbers, relative to DMSO
[3] = listed as Raloxifene hydrochloride, HCl

## O=C(c1ccc(OCCN2CCCCC2)cc1)c1c(-c2ccc(O)cc2)sc2cc(O)ccc12 [Evista (Raloxifene HCl), Raloxifene HCl]
[1]; HCl
  Avr FF/Renilla from DMSO: 0.60
[1]; [3]
  Avr FF/Renilla from DMSO: 0.37
[2]; HCl
  % Avr Renilla from DMSO: 70.31%
[2]; [3]
  % Avr Renilla from DMSO: 95.20%

## CC1=C(/C=C/C(C)=C/C=C/C(C)=C\C(=O)O)C(C)(C)CCC1 [Isotretinoin]
[1]
  Avr FF/Renilla from DMSO: 0.57
[2]
  % Avr Renilla from DMSO: 72.18%

## CC1=C(/C=C/C(C)=C/C=C/C(C)=C/C(=O)O)C(C)(C)CCC1 [Tretinoin (Aberela), Tretinoin]
[1]; listed as Retinoic acid
  Avr FF/Renilla from DMSO: 0.35
[2]; listed as Retinoic acid
  % Avr Renilla from DMSO: 88.00%
